Literature values in patent US9808470B2, “Estrogenic components for use in the treatment of neurological disorders” (UNIVERSITE DE LIEGE, priority 2012, dated 2017).
At least one compound was matched to its structure with a doubt left.

Tested on: MCF-7 cells
Details: E2 compared to E4; cited from earlier work

C[C@]12CC[C@@H]3c4ccc(O)cc4CC[C@H]3[C@@H]1CC[C@@H]2O [E2, estradiol, reference compound]
potency in growth promotion of MCF-7 cells, times higher than E4: 50 times
